Data reported in publication PMC11335216.

Chains of the proteins cited; added tags and fusions are not shown. Residues count along the entry.
UniProt O00410: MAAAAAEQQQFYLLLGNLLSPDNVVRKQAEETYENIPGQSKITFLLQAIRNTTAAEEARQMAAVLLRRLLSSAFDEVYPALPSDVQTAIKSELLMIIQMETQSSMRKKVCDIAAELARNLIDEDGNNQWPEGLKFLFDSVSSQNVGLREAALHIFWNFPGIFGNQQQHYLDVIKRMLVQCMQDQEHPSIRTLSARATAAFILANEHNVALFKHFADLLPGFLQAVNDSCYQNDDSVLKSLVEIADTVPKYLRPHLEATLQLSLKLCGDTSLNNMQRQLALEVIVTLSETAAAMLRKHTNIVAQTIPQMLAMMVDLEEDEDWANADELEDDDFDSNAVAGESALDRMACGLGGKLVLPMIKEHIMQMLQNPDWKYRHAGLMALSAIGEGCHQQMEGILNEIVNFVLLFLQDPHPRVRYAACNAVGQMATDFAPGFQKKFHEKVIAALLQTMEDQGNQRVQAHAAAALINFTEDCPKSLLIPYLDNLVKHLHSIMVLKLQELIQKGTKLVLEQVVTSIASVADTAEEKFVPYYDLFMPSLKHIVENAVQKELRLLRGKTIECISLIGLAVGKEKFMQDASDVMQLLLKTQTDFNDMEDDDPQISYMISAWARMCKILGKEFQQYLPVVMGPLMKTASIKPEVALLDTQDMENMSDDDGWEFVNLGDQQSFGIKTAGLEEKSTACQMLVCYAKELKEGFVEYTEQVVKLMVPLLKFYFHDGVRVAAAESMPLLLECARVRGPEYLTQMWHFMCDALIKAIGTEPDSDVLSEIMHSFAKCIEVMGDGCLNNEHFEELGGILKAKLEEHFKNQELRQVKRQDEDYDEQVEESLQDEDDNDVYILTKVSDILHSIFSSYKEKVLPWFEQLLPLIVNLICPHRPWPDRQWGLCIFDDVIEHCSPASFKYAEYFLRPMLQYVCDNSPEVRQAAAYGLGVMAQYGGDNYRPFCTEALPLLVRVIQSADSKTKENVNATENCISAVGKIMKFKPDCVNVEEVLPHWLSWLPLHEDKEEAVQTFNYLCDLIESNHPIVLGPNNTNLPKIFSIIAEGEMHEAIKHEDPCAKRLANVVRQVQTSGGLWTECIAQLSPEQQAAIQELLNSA
UniProt P05161, residues 1-157: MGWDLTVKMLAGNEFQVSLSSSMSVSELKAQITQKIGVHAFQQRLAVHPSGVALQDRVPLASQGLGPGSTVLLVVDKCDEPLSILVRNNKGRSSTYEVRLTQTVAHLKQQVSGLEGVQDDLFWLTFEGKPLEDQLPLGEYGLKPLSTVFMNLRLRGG

Target: T1, PPP2R2B-FLAG (serine/threonine protein phosphatase 2A regulatory subunit PPP2R2B) (human) (UniProt Q00005)
T1 sequence: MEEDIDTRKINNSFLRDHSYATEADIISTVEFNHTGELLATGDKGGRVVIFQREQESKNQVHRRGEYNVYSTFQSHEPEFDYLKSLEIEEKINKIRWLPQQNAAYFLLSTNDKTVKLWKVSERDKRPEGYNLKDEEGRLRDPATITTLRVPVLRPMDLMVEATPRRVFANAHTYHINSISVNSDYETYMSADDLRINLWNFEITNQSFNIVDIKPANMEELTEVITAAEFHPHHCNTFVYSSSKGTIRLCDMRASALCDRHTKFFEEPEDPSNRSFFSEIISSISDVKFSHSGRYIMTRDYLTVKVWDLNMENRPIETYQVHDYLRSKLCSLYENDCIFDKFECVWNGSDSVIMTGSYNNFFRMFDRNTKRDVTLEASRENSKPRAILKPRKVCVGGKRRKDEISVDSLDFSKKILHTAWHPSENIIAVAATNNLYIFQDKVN
Assay: affinity purification with mass spectrometry; lysate of cells transfected with PPP2R2B-FLAG or vector control; anti-FLAG magnetic beads overnight at 4 °C; eluted in SDS buffer; MS

- binding: binds
Molecule: importin 5 (IPO5) (from UniProt O00410 1-1097)

- binding: binds
Molecule: interferon stimulated gene 15 (ISG15) (from UniProt P05161 1-157)

- binding: binds
B1: MX2 (protein, UniProt P20592 1-715)
chain: MSKAHKPWPYRRRSQFSSRKYLKKEMNSFQQQPPPFGTVPPQMMFPPNWQGAEKDAAFLAKDFNFLTLNNQPPPGNRSQPRAMGPENNLYSQYEQKVRPCIDLIDSLRALGVEQDLALPAIAVIGDQSSGKSSVLEALSGVALPRGSGIVTRCPLVLKLKKQPCEAWAGRISYRNTELELQDPGQVEKEIHKAQNVMAGNGRGISHELISLEITSPEVPDLTIIDLPGITRVAVDNQPRDIGLQIKALIKKYIQRQQTINLVVVPCNVDIATTEALSMAHEVDPEGDRTIGILTKPDLMDRGTEKSVMNVVRNLTYPLKKGYMIVKCRGQQEITNRLSLAEATKKEITFFQTHPYFRVLLEEGSATVPRLAERLTTELIMHIQKSLPLLEGQIRESHQKATEELRRCGADIPSQEADKMFFLIEKIKMFNQDIEKLVEGEEVVRENETRLYNKIREDFKNWVGILATNTQKVKNIIHEEVEKYEKQYRGKELLGFVNYKTFEIIVHQYIQQLVEPALSMLQKAMEIIQQAFINVAKKHFGEFFNLNQTVQSTIEDIKVKHTAKAENMIQLQFRMEQMVFCQDQIYSVVLKKVREEIFNPLGTPSQNMKLNSHFPSNESSVSSFTEIGIHLNAYFLETSKRLANQIPFIIQYFMLRENGDSLQKAMMQILQEKNRYSWLLQEQSETATKRRILKERIYRLTQARHALCQFSSKEIH

These are yes or no findings as the source states them, for the method shown. In cells and extracts the contact can be indirect. A yes stands for co-enrichment or nearness to the bait. Other partners may have been found. Where a sequence is shown, tags or fusion partners need not be part of it. One block for each molecule: values may come before it.
